Laboratory results: paper doi:10.1101/2025.08.04.668388
These are yes or no findings as the source states them, for the method shown. In cells and extracts the contact can be indirect. Binding calls can cover weak binding; strength is not graded here.

Target: m54.5p-V5 (C-terminally V5-tagged MCMV m54.5 ORF product) (murine cytomegalovirus (MCMV, Smith, pSM3fr))
Assay: co-IP

B1: PP6R3 (protein, UniProt Q922D4 1-844)
chain: MFWKFDLHSSSHIDTLLEREDVTLKELMDEEDVLQECKAQNRKLIEFLLKAECLEDLVSFIIEEPPQDMDEKIRYKYPNISCELLTSDVSQMNDRLGEDESLLMKLYSFLLNESPLNPLLASFFSKVLSILISRKPEQIVDFLKKKRDFVDLIIKHIGTSAIMDLLLRLLTCIEPPQPRQDVLNWLNEERIIQRLVEIVHPSQEEDRHSNASQSLCEIVRLSRDQMLQVQNSTEPDPLLATLEKQEIIEQLLSNIFHKEKNESAIVSAIQILLTLLETRRPTFEGHIEICPPGMSHSACSVNKSVLEAIRGRLGSFHELLLEPPKKSVMKTTWGILDPPVGNTRLNVIRLISSLLQTNTSSINGDLMELNSIGVILDMFFKYTWNNFLHTQVEICIALILASPFENAENGTITDQDSTGDNLLLKHLFQKCQLIERILEAWDTNEKKQAEGGRRHGYMGHLTRIANCIVHSTDKGPNSALVQQLIKDLPDEVRERWETFCTNSLGETNKRNTVDLAFSDYQMQQMTSNFIDQFGFNDEKFADQDDIGNVSFDRVSDINFTLNTNESGNIALFEACCKERIQQFDDGGSDEEDIWEEKHIAFTPESQRRSSSGSTDSEESTDSEEEDGAKQDLFESSSANTEDKMEVDLNEPPTWSANFDVPMETTHGAPLDSVGSDVWSTEEPMPTKETGWASFSEFTSSLSTKESLRSNSPVEMETSTESVDPLTPGAAALATQPEAPGSMAMEASSDGEEDAESTDKVTETVMNGGMKETLSLTVDAKTETAVFKSEEEKLSTSQDAACKDAEETPEPAEAKCTAPLTPSSSPEQRTDQPSMPSDPSVNGPV
- binding: binds

B2: PP6C (protein, UniProt Q9CQR6 1-305)
chain: MAPLDLDKYVEIARQCKYLPENDLKRLCDYVCDLLLEESNVQPVSTPVTVCGDIHGQFYDLCELFRTGGQVPDTNYIFMGDFVDRGYYSLETFTYLLALKAKWPDRITLLRGNHESRQITQVYGFYDECQTKYGNANAWRYCTKVFDMLTVAALIDEQILCVHGGLSPDIKTLDQIRTIERNQEIPHKGAFCDLVWSDPEDVDTWAISPRGAGWLFGAKVTNEFVHINNLKLICRAHQLVHEGYKFMFDEKLVTVWSAPNYCYRCGNIASIMVFKDVNTREPKLFRAVPDSERVIPPRTTTPYFL
- binding: binds
